Data as given in patent EP1246824B1, “CARBOXAMIDE DIAZEPIN DERIVATIVES, PREPARATION METHOD, USE AS MEDICINES, PHARMACEUTICAL COMPOSITIONS AND USE THEREOF” (Aventis Pharma S.A., priority 1999, dated 2001).
At least one compound was matched to its structure with a doubt left.

Target: T1, Cathepsine K (Homo sapiens, UniProt P43235)
T1 sequence (P43235 115-329): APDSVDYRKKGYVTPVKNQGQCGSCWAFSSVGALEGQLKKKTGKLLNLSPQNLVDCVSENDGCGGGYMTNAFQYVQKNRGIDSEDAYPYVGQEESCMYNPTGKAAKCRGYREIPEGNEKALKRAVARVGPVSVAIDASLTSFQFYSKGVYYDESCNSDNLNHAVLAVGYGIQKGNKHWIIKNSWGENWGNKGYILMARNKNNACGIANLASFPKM
Assay: Inhibition of Cathepsine K (fluorogenic substrate Z-Val-arg-AMC)
Assay type: biochemical
Conditions: substrate Z-Val-arg-AMC 20 µM, enzyme 5 ng/ml, pH 5.5, 2 h at room temperature; concentration range 50 to 0.5 µM; read-out: IC50 µM Cathepsin K
Description: Etude de l'inhibition de Cathepsine K :
Les produits à tester (10 mM) sont dilués à 1 mM en DMSO et repartis dans des plaques 96 puits polystyrène Nunc à raison de 2 µl par puits. La colonne 12 de la plaque est réservée pour les contrôles et reçoit donc […] de DMSO (sans produits) par puits. Les plaques sont conservées à -80°C et décongelées le jour de l'expérience.
Les produits sont dilués à 50 µM par addition de 38 µl de tampon réaction : acétate de sodium 100 mM, EDTA 5 mM, DTT 1 mM pH 5,5. L'addition ainsi que tous les pipetages suivant sont réalisés par un pipeteur 96 cônes CybiWell. Après mélange des solutions, chaque produit est transféré dans 2 puits (duplicates) d'une plaque 384 puits noire Greiner à raison de 10 µl par puits. On peut donc tester 2 plaques 96 dans une plaque 384.
Une solution de substrat à 50 µM, Z-Val-arg-AMC (Calbiochem), est préparée dans le tampon réaction . Le substrat, est ensuite distribué dans tous les puits de la plaque 384 (20 µl par puits).
Une solution de Cathepsine K à 12,5 ng/ml est préparée dans le tampon réaction et distribuée dans tous les puits de la plaque 384 (20 µl par puits) exceptés les 16 puits servant de contrôles 100 % d'inhibition (colonne 23 et 24, lignes I à P) qui recevront 20 µl de tampon sans enzyme. Les contrôles […] d'inhibition sont réalisés dans les colonnes 23 et 24, lignes A à H qui ne contiennent pas de produits. […]

## C[C@H](NC(=O)[C@@H]1CCCN2C(=O)CC[C@H](NC(=O)NCCc3cccs3)C(=O)N12)C(=O)C=[N+]=[N-] [Exemple 172, 9-[(9S)-[[[3-(thien-2-yl)-ethyl]amino]carbonyl]amino]-N-((2S)-4-diazo-3-oxo-2-butyl)-octahydro-6,10-dioxo-6H-(1S)-pyridazino[1,2-a][1,2]diazepine-1-carboxamide]
  IC50: 20 µM
